Data taken from PMC12254500.

The chains behind the UniProt entries cited, without tags or fusion partners. Where a name states a change or a piece, a line headed by the entry shows the natural chain unless it says otherwise.
UniProt Q9UHY1: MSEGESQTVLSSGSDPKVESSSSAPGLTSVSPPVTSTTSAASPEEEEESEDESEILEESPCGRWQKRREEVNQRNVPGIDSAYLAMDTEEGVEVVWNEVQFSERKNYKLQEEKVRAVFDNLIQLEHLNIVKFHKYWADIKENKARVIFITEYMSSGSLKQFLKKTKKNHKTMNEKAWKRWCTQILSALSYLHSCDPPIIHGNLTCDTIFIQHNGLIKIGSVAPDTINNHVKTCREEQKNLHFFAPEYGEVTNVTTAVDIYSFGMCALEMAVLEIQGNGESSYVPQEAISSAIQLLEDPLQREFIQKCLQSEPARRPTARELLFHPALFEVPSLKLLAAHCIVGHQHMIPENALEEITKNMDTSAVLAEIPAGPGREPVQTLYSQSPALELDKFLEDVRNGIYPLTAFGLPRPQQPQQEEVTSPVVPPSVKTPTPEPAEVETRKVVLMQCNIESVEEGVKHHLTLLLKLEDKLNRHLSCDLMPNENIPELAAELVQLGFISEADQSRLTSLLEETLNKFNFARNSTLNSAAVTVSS
UniProt Q9NSY0: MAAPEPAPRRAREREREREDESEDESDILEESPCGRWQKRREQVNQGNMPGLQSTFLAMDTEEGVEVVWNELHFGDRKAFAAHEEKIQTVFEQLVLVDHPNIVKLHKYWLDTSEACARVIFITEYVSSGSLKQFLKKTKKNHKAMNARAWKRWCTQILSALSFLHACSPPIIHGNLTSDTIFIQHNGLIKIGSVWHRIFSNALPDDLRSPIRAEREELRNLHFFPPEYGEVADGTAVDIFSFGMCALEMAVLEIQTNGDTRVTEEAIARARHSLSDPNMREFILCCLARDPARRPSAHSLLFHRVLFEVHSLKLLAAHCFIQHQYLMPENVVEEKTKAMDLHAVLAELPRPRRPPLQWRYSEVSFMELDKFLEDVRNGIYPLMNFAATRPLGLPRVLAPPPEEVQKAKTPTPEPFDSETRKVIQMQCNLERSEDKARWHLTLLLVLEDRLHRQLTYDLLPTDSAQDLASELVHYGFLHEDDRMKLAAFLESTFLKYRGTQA

Target: Flag-NRBP1 (full-length NRBP1) (human) (UniProt Q9UHY1)
Experiment: co-IP; HEK293T cells; Flag antibody used to pull down Flag-NRBP1; co-precipitated NRBP1 or NRBP2 variants by blot; CHAPS-based buffer

binding | Substance
binds | full-length NRBP2 mutant lacking the NRB motif (from UniProt Q9NSY0)
binds | full-length NRBP2 mutant lacking the dimerization region (from UniProt Q9NSY0)

No constants are given. Whether binding was seen depends on the method and setting. In cells and extracts the contact can be indirect. Binding calls can cover weak binding; strength is not graded here.
